For two molecules, binding results are on record in article PMC5770787.

The chains behind the UniProt entries cited, without tags or fusion partners.
UniProt P51149: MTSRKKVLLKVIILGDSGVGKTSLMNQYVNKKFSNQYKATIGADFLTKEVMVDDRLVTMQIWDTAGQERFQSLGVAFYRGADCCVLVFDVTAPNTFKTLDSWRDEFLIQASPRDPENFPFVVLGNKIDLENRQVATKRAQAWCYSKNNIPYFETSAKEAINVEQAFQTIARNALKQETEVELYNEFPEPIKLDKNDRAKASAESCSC
UniProt Q9UI14: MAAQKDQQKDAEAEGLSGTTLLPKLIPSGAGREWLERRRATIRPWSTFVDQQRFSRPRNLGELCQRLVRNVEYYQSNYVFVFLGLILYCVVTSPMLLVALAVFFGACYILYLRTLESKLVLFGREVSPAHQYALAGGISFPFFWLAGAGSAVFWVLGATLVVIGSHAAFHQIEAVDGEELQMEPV

This assay deals with GFP-RAB7a (human) (UniProt P51149). As to the kind of experiment: affinity purification with mass spectrometry; GFP-trap of GFP-RAB7 from SILAC-labelled parental HeLa and VPS35 KO cells, two runs with swapped labels; Tris-HCl pH 7.8, 50 mM NaCl, 0.5% Triton X-100, 1 mM MgCl2; Orbitrap, MaxQuant.

No constants are given. Whether binding was seen depends on the method and setting. In cells and extracts the contact can be indirect. These calls come from enrichment with a bait or labelling near it, and not all partners need be listed.

On to PRA-1 (from UniProt Q9UI14 1-185), for which the binding entry is “binds”.

B1: GDI1 (protein, UniProt P31150 1-447)
chain: MDEEYDVIVLGTGLTECILSGIMSVNGKKVLHMDRNPYYGGESSSITPLEELYKRFQLLEGPPESMGRGRDWNVDLIPKFLMANGQLVKMLLYTEVTRYLDFKVVEGSFVYKGGKIYKVPSTETEALASNLMGMFEKRRFRKFLVFVANFDENDPKTFEGVDPQTTSMRDVYRKFDLGQDVIDFTGHALALYRTDDYLDQPCLETVNRIKLYSESLARYGKSPYLYPLYGLGELPQGFARLSAIYGGTYMLNKPVDDIIMENGKVVGVKSEGEVARCKQLICDPSYIPDRVRKAGQVIRIICILSHPIKNTNDANSCQIIIPQNQVNRKSDIYVCMISYAHNVAAQGKYIAIASTTVETTDPEKEVEPALELLEPIDQKFVAISDLYEPIDDGCESQVFCSCSYDATTHFETTCNDIKDIYKRMAGTAFDFENMKRKQNDVFGEAEQ
B1: the binding result is given as “binds”.
